From PMC7819943, “Rice protein-binding microarrays: a tool to detect cis-acting elements near promoter regions in rice” come the findings set out here.

Sequences of proteins named here, by UniProt entry; tags and fusion partners are left off.
UniProt Q0JBA9, entry or part of it: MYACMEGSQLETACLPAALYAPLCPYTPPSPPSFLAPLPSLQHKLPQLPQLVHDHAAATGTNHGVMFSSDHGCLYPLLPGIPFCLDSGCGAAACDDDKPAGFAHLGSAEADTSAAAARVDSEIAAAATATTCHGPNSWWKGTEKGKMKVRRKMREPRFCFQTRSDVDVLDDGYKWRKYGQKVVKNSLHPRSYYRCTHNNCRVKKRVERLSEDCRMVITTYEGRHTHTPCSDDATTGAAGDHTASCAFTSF

Some of the results follow.

This experiment concerns the target OsWRKY34 (Oryza sativa, UniProt Q0JBA9 1-250). Put plainly: protein-binding microarray (RPBM); PBS, 2% BSA, 51.3 ng/ul salmon testes DNA, 50 uM zinc acetate, 200 nM TF, 25 C, 1 h; high values mean tight binding. The note with it: protein: recombinant; tags: N-terminal polyhistidine and DsRed monomer fusion (pET32a); label: CyDye5-dUTP incorporated in the synthesized complementary strand; 3' TTTTT single-stranded linker to array surface; dsDNA, one strand shown. Summed up: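 Binding signal is reported as fluorescence intensity per feature (arbitrary units) from an Axon 4000B scanner. Incubation used 200 nM of each Ni–NTA-purified, N-terminally polyhistidine- and DsRed-fused transcription factor from E. coli BL21-CodonPlus on a double-stranded custom Agilent array for 1 h at 25 °C, with 50 µM zinc acetate in the buffer, followed by washing.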
Consider “GGTGGGCGGAGTGGGAGGGGAGGCATCGGCGCCTCGGTGGCGGAGTCACCTAGTGCAG”, for which the binding signal is 16800 fluorescence intensity (a.u.). Take “TTTTTATACTGTTGGTACATATTCAAATTTGTCAAACATTCGGAGTCACCTAGTGCAG”: the binding signal is 8960 fluorescence intensity (a.u.). “CGCCTCCATGGTTTTGCGACTTTGCCGTCATTGCTTGATACGGAGTCACCTAGTGCAG”: the binding signal is 8840 fluorescence intensity (a.u.). Consider “CCATATATGCTAGGTCAGGCCAATGACTCCATCCTTCTTTCGGAGTCACCTAGTGCAG”, for which the binding signal is 8020 fluorescence intensity (a.u.).

Turning to “GTTGTCGAGCCGTGTCAAGCCACCAATGATCTTTGACTAACGGAGTCACCTAGTGCAG”, the binding signal is 8120 fluorescence intensity (a.u.). Take “TGGATAGCGCTTGTGGTGTGGGCAGGGTTTACACAGATACCGGAGTCACCTAGTGCAG”: the binding signal is 8400 fluorescence intensity (a.u.).

Consider “GATGACAAGTTGAGAGACCTTCCGTGTACTTTTTCCAATTCGGAGTCACCTAGTGCAG”, for which the binding signal is 9990 fluorescence intensity (a.u.). Consider “CCAATTCAATTGCATACACCCCTTGCACCTCTCTCACACCCGGAGTCACCTAGTGCAG”, for which the binding signal is 8020 fluorescence intensity (a.u.). As to “ATGCTCATTCTCTCAGACTGTGTCTCCACCACTGTGCTCACGGAGTCACCTAGTGCAG”, the binding signal is 9320 fluorescence intensity (a.u.).

Take “TTTTTCTCCCCAGATTGCTGTGCACGGATTTGCCGTAAGACGGAGTCACCTAGTGCAG”: the binding signal was 8360 fluorescence intensity (a.u.). For the sequence “CAATCACCCCAACCGCCTCACTCCTTCGCCGCCACTCCACCGGAGTCACCTAGTGCAG”, the binding signal was 8060 fluorescence intensity (a.u.). On to “TGGGGTCCCACGCTGATTCAGCCGTCACGTAGACCAAAATCGGAGTCACCTAGTGCAG”, for which the binding signal was 8890 fluorescence intensity (a.u.). Take “CCGTACTCTGATACTTCCCGTGTTACGCCTGTCACAGCTTCGGAGTCACCTAGTGCAG”: the binding signal is 8160 fluorescence intensity (a.u.).

Regarding “CACCCTGACCGTCCTGTCCGCCGAGCCGCTGCACACCAGCCGGAGTCACCTAGTGCAG”, the binding signal is 8640 fluorescence intensity (a.u.). On to “CATTCGCTTGCTTCATGCTCTACCGCAAGTCTGCAACTGTCGGAGTCACCTAGTGCAG”, for which the binding signal is 9340 fluorescence intensity (a.u.). In the case of “AACCTTTTCGCCGTCCTATGACTATTTTTCTCTGGTTTCTCGGAGTCACCTAGTGCAG” it was 14900 fluorescence intensity (a.u.); in that of “CTTACTACTTCAGGGCCTGTTTAGTTCACTAACGAAAATTCGGAGTCACCTAGTGCAG”, 8400 fluorescence intensity (a.u.).

For the sequence “GGCTTCAACTCACACACATGTTTATTCTACATTTTTTAAGCGGAGTCACCTAGTGCAG”, the binding signal is 9010 fluorescence intensity (a.u.). Regarding “TGGTTTAATTTCATCAGTTTTCCTCCATTTCCTTCTTTAGCGGAGTCACCTAGTGCAG”, the binding signal was 9830 fluorescence intensity (a.u.). For the sequence “GTTTTTCGTGGCAGTCATACCTATTGATTTCTGCTGCTACCGGAGTCACCTAGTGCAG”, the binding signal was 9590 fluorescence intensity (a.u.).

Consider “TTCGTCGTAAGCCCTCGCGCCTGTAGTATTGCCTGGACACCGGAGTCACCTAGTGCAG”, for which the binding signal was 8350 fluorescence intensity (a.u.). Consider “CAGTACTTTTTCTCATAATTGTTTCGTCGCTGGTTAGCACCGGAGTCACCTAGTGCAG”, for which the binding signal was 9060 fluorescence intensity (a.u.). For the sequence “AAGTCGAGGTCAAAGGTCAATGTCCGTGGTCTCTTTTTATCGGAGTCACCTAGTGCAG”, the binding signal was 8120 fluorescence intensity (a.u.).

For “GGTTTGTACAACAATAATATAGAGCGGGGTTTTCTCTTGTCGGAGTCACCTAGTGCAG”, the binding signal was 8420 fluorescence intensity (a.u.).

With “TAATGGTTTACATTTTTTTACGTACTTCTAAATCTTTTCCCGGAGTCACCTAGTGCAG”, the binding signal is 8790 fluorescence intensity (a.u.). The same measure for “AATATGTTATCACCGCAGATAGTTCTTCTATGTTTAGCATCGGAGTCACCTAGTGCAG”: 8260 fluorescence intensity (a.u.). In the case of “AATCTTCTTTCTGCCAGGCTGACAATTTGCGGCAGCAGACCGGAGTCACCTAGTGCAG” it was 9050 fluorescence intensity (a.u.); in that of “CAGAGGTACCATTTCTATTTTCTCCTTGTGTCCATTAATCCGGAGTCACCTAGTGCAG”, 8340 fluorescence intensity (a.u.); in that of “TTGCCCTTACAATCATGCATCCATACCAAAATACTTTTACCGGAGTCACCTAGTGCAG”, 8490 fluorescence intensity (a.u.). As for “AGAATTTCTTACTCTGCTTTTATTCCCGTGCCAGTGCTCTCGGAGTCACCTAGTGCAG”, the binding signal was 10900 fluorescence intensity (a.u.). For “GCAGTCCAACCATCACCTCAACCGGTCAACATGGATTCTCCGGAGTCACCTAGTGCAG”, the binding signal is 9540 fluorescence intensity (a.u.). In the case of “GCTTAATTTTGTGTTCGTGTGCATGGATTTTGTGTTTCGTCGGAGTCACCTAGTGCAG”, the binding signal was 8720 fluorescence intensity (a.u.). As to “CCACACACTTGAAACTCGCAGATTCCTGCCTTGATTAGCACGGAGTCACCTAGTGCAG”, the binding signal is 8580 fluorescence intensity (a.u.). Take “AAATATATTACATCTATTGTTCCTATCTATTCCTACGTTGCGGAGTCACCTAGTGCAG”: the binding signal was 9130 fluorescence intensity (a.u.). With “GTGGTCCGGTGGTGGGGTGATGGGGCGTGGCGGTTCTGTCCGGAGTCACCTAGTGCAG”, the binding signal is 15400 fluorescence intensity (a.u.). In the case of “ACACGGTCTCCAAAACACAACTTTGACTTCTTGTTTCATTCGGAGTCACCTAGTGCAG” it was 12700 fluorescence intensity (a.u.); in that of “TCCTTTTGCCCGCACCATCACCACCACCACCGCCTCCAGACGGAGTCACCTAGTGCAG”, 12300 fluorescence intensity (a.u.).

“TCGTCCCCATCCAACCGTGCGTGCGTGCCGCCCGCGCGCGCGGAGTCACCTAGTGCAG”: the binding signal was 12200 fluorescence intensity (a.u.). On to “CGAGCCTCCACGCCTCGAGCACCCTCCTCGCGCCGCCGCTCGGAGTCACCTAGTGCAG”, for which the binding signal is 8520 fluorescence intensity (a.u.). Regarding “GACACCACATAAAGACACCCATCCCCGTGATCAACTACCTCGGAGTCACCTAGTGCAG”, the binding signal was 8320 fluorescence intensity (a.u.). The same measure for “CCCCAGCTGTTTGCCTTTCCTGCCTGCGGGGACGTTTTACCGGAGTCACCTAGTGCAG”: 8330 fluorescence intensity (a.u.). In the case of “TCTCGCGATTTACATGCAAACTGTACAATTAGTTTTTCTTCGGAGTCACCTAGTGCAG” it was 8370 fluorescence intensity (a.u.).
